Our source for the binding values is PMC8548325.

By UniProt entry, the sequences of proteins in these tests, tags left out. Residues count along the entry.
UniProt Q5ZTK4, residues 231-1190: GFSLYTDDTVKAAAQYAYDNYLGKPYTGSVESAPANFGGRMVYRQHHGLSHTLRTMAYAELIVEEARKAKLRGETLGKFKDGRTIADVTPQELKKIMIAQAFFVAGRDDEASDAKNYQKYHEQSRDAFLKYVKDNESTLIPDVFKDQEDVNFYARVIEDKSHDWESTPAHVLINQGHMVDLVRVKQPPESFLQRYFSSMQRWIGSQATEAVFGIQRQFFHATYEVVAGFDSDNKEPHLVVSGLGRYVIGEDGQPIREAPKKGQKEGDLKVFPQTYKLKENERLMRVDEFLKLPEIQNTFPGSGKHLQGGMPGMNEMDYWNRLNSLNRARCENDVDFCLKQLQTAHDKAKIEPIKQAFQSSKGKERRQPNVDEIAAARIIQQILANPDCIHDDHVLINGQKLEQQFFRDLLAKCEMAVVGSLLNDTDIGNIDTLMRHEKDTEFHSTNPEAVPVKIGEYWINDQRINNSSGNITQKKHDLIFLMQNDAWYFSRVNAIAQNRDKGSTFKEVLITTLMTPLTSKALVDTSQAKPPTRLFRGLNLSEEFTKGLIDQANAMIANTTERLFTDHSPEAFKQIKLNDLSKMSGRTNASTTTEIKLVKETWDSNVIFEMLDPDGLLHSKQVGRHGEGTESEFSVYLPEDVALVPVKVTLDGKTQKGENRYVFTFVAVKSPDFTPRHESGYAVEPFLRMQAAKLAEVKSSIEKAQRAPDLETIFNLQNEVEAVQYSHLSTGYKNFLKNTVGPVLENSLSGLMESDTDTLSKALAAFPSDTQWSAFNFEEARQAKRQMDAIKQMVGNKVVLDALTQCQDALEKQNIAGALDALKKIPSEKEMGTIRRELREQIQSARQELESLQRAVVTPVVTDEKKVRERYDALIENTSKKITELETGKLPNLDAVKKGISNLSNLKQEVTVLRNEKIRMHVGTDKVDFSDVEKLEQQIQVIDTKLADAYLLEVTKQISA

Results are given in words; binding and its absence hold for the method and conditions named.

The experiment concerns the target SdeA (residues 231 to 1190 containing both PDE and mART domains) (Legionella pneumophila) (UniProt Q5ZTK4). The experiment is described as follows: SEC; both purified. (In gel filtration, larger molecules generally elute earlier.)

As to “SdeA (residues 231 to 1190 containing both PDE and mART domains) (from UniProt Q5ZTK4 231-1190) (domain or fragment)”, the binding entry is on record as “no binding (tested: 0.5 mg/mL)”.
